Measured values taken from US20160039742A1, “EXTRACTION OF TRAMADOL FROM NAUCLEA LATIFOLIA SMITH” ([…] FOURIER - GRENOBLE 1, priority 2013, published 2016).

Tested on: acetic acid-induced abdominal constrictions in mice
Experiment: Acetic acid induced abdominal constriction (writhing) test
Assay type: in vivo
Conditions: 5 mg/kg s.c.
Experimental: Experiments in mice were performed on C57BL/6 male mice (Janvier, Le-Genest-St-Isle, France) weighting 26-35 g, housed in individual cages with food and water ad libitum and kept in a 12 hours/12 hours light-dark cycle. All animal experimentations were carried out in accordance with the rules of the European Committee Council Directive of Nov. 24, 1986 (86/609/EEC) and all procedures were approved by the local department of the veterinarian services for the use and care of animals (agreement #380612). All efforts were made to minimize animal suffering and reduce the number of animals used in each series of experiments.
One hour after oral administration of these substances, each animal was injected i.p. with 0.6% acetic acid in a volume of 10 ml/kg body weight. After acetic acid injection, the number of stretching or writhing responses per animal was recorded during 30 min after a latency period of 5 min. Inhibition was expressed in percentage.
Data were analyzed by two-way Anova followed by Tukey's (HSD) multi-comparison test.

## CN1CC[C@]23c4c5ccc(O)c4O[C@H]2[C@@H](O)C=C[C@H]3[C@H]1C5 [Morphine, reference compound]
  Acetic acid-induced writhing inhibition (%): 59.2%
